Results from PubChem BioAssay AID2567 (National Center for Advancing Translational Sciences (NCATS), 2010).
Shown are results outside the selection of hits, which stands elsewhere. Inconclusive results are not listed. Activity calls are given as the source filed them. Calls come from the whole dose curve; as a rule, active = well fitted antagonist curve with a large enough effect in the main read-out, with a control signal flat; inconclusive = small, poorly fitted or top-dose-only effect; inactive = no such curve, though single readings can be large or run the other way.

Sequences of proteins named here, by UniProt entry; tags and fusion partners are left off. A change or cut given only in a name is not applied to a line headed by its entry.
UniProt Q6W5P4: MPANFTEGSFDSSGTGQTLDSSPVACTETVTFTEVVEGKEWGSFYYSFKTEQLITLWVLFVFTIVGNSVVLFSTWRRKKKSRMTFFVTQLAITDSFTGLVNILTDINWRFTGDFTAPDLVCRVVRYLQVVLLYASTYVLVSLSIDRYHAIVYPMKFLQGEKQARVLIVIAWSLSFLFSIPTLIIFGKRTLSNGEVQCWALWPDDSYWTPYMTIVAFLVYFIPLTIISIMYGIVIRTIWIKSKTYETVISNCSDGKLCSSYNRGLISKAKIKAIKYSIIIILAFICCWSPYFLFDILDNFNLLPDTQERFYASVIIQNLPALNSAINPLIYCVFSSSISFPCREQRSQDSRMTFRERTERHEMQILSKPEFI

Biological target: Neuropeptide S receptor (Homo sapiens) (UniProt Q6W5P4)
Assay: Confirmation Concentration-Response Assay for Antagonists of the Neuropeptide S Receptor: Calcium Signal Transduction, SAR for Probe
Conditions: CHO-NPSR cells, NPS-induced calcium fluorescence, FDSS; at 19.3 µM (top of the series)
Excerpt: NIH Chemical Genomics Center [NCGC] NIH Molecular Libraries Probe Production centers Network [MLPCN] MLPCN Grant: X01-DA026210-01 Assay Submitter (PI): Heilig, Markus Alexander NCGC Assay Overview: Neuropeptide S receptor (NPSR), previously known as GPR154, is a recently de-orphanized G protein coupled receptor. Its endogenous ligand is the 20 amino acids peptide Neuropeptide S (NPS). […] NPS and its receptor are found in various tissues. Specifically they are highly expressed in brain areas that have been implicated in modulation of arousal, stress and anxiety. […] This change in intracellular calcium can be detected using a calcium indicator dye on a calcium imaging plate reader system (FDSS).
NCGC Assay Protocol Summary: A Chinese hamster ovary (CHO) cell line stably expressing the NPS receptor (CHO-NPSR) was obtained from Dr. Heilig lab at NIAAA and maintained in F-12 Kaighn's media (Invitrogen, Carlsbad, CA, 21127) supplemented with 10 % FBS, 100 units/ml penicillin, 100 ug/ml streptomycin and 250 ug/ml geneticin at 37C, 5% CO2 in a humidified atmosphere. […] The assay was performed on a FDSS-7000 kinetic plate reader in 1536-well format. For both agonist (1-220s) and antagonist (221-400s) phases, the maximums of kinetic fluorescence responses were converted separately into text files using the instrument's software data export utility. […]

## CN(C)c1ccc2nc3ccc(=[N+](C)C)cc-3sc2c1
  activity change, negative = inhibition: inactive: 7.9%
